Experimental data: the supplement of paper PMC10849652
The list shows a part of the results.

By UniProt entry, the sequences of proteins in these tests, tags left out. Where a name states a change or a piece, a line headed by the entry shows the natural chain unless it says otherwise.
UniProt Q5JU69: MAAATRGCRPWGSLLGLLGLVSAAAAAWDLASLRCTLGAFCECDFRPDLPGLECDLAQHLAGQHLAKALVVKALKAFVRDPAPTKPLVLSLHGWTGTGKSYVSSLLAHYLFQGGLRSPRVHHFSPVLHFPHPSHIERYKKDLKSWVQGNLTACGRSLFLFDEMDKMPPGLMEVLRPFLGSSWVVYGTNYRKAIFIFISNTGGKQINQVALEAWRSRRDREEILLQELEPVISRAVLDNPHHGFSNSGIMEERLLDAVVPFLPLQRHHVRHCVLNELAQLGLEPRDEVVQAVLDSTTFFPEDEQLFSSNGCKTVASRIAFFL
UniProt Q92973: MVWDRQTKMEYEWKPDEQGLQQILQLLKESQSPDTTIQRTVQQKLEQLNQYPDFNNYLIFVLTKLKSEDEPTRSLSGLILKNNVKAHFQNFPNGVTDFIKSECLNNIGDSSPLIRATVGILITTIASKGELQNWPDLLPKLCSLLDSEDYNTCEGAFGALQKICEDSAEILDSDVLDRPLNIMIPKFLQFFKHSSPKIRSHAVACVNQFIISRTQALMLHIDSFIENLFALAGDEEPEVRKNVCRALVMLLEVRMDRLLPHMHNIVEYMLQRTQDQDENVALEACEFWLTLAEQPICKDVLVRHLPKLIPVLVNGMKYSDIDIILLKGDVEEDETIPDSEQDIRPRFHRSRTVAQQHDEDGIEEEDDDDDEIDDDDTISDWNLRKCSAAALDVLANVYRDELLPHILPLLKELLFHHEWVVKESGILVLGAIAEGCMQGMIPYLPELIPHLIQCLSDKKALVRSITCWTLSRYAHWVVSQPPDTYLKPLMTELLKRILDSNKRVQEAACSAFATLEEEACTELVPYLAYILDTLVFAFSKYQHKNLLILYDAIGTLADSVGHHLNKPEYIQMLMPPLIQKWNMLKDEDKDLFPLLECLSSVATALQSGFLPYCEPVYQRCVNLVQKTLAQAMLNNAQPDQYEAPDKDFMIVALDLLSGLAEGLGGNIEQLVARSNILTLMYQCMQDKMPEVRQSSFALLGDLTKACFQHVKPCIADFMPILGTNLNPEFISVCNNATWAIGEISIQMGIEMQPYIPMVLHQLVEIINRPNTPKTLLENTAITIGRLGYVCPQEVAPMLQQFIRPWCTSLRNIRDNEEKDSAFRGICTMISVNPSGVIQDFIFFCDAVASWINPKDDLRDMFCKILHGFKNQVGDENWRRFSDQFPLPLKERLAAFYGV
UniProt Q15025: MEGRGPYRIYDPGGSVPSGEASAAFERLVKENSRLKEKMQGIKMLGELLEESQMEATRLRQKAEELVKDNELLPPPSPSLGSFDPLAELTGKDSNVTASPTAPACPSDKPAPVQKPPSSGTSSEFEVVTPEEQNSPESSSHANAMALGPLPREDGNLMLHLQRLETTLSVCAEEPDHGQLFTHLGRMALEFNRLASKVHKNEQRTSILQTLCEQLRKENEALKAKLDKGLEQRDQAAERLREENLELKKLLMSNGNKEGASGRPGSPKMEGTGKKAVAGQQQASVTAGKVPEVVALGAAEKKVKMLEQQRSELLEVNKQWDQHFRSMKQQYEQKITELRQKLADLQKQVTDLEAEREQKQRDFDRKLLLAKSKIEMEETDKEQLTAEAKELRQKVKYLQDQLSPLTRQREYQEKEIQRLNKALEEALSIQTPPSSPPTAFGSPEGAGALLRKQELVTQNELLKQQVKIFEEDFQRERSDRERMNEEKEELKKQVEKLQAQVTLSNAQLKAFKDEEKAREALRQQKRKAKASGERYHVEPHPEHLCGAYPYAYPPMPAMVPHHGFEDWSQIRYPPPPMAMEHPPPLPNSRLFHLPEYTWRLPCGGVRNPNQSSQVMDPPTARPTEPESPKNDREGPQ
UniProt O75674: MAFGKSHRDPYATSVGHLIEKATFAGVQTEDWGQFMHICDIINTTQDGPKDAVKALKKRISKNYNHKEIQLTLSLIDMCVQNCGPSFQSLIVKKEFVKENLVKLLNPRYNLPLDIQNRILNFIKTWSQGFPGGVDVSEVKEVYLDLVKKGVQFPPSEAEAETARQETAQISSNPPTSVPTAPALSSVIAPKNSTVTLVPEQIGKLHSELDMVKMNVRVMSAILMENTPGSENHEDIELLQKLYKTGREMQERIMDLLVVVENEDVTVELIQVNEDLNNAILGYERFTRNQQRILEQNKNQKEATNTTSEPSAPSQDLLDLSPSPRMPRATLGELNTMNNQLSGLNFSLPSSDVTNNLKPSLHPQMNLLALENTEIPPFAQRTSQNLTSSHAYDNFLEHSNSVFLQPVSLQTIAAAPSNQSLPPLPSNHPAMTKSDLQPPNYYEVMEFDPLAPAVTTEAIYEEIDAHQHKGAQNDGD
UniProt Q8NBN3: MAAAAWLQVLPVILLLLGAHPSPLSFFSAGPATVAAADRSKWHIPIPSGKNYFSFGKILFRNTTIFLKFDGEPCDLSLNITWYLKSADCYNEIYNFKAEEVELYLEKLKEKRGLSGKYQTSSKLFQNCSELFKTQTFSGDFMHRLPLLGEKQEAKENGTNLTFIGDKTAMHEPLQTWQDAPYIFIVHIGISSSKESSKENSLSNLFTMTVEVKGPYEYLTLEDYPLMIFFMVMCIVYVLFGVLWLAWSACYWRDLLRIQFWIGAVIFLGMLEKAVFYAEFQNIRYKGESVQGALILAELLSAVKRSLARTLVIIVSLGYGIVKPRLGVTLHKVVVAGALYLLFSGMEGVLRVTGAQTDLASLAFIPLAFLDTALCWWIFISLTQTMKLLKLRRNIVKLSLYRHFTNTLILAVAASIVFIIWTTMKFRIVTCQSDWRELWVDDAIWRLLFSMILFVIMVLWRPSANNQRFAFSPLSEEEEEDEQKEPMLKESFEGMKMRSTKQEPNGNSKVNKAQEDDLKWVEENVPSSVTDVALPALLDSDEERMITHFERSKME
UniProt Q6ZVM7: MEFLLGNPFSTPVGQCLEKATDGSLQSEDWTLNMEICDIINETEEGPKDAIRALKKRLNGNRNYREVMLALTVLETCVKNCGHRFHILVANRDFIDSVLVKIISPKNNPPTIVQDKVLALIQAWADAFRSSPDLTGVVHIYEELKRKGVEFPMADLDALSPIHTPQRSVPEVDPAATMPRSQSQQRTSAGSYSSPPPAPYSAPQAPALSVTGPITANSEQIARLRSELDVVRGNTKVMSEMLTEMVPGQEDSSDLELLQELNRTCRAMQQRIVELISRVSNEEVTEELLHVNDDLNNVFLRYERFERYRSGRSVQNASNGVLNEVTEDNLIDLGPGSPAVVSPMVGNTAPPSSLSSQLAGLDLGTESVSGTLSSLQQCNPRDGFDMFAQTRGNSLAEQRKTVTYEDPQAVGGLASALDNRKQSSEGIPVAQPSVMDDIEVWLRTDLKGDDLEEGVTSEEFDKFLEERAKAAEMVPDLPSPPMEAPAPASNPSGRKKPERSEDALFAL
UniProt P09493, whole entry, looked up: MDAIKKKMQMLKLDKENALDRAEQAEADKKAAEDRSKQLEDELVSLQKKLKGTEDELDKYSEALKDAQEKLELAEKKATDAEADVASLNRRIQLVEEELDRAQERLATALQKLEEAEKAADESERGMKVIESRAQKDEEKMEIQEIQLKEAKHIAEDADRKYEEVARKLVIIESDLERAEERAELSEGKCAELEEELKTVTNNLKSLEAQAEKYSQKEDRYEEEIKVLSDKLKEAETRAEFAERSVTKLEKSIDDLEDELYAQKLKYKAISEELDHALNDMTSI
UniProt Q96HV5: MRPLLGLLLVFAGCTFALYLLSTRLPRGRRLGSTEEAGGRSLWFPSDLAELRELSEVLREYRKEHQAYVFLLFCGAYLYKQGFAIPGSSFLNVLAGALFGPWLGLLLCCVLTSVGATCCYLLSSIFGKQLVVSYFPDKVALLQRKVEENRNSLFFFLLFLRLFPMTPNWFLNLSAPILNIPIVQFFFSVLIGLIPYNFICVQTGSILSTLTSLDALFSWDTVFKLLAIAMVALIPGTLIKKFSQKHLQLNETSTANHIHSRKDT
UniProt P51580: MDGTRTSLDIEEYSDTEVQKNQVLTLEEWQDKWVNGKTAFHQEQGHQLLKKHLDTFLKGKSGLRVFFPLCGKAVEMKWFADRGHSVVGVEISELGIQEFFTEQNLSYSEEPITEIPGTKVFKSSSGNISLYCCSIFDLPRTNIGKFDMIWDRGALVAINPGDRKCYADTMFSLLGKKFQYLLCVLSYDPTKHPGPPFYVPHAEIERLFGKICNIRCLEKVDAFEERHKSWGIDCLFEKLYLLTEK
UniProt Q6PI78: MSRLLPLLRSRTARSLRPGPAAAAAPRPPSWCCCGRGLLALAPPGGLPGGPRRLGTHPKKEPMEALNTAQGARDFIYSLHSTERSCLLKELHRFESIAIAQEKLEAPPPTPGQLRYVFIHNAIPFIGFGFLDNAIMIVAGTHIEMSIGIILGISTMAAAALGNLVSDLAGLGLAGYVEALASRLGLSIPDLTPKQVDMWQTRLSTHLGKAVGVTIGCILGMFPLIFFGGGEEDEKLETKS
UniProt Q13595: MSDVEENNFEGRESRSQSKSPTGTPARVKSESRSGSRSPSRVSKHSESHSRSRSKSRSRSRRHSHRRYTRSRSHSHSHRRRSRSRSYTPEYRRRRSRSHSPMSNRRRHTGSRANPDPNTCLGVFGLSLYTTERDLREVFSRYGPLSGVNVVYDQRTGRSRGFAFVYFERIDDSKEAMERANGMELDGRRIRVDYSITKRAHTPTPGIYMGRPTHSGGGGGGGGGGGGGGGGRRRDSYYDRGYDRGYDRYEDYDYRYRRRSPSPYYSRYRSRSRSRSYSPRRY
UniProt P42167: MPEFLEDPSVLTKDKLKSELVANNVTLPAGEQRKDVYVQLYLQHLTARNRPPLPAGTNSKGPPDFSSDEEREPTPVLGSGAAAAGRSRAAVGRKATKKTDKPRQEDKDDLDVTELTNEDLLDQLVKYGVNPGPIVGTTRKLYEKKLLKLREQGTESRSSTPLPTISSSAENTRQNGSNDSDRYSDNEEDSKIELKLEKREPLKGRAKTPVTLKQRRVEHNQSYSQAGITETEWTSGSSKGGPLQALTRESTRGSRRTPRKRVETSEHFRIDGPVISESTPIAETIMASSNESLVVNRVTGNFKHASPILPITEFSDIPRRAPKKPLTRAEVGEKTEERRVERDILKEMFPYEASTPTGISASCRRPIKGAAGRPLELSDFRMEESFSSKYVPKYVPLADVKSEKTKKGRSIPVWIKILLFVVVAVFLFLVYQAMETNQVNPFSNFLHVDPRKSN
UniProt Q5BJF2, whole entry, looked up: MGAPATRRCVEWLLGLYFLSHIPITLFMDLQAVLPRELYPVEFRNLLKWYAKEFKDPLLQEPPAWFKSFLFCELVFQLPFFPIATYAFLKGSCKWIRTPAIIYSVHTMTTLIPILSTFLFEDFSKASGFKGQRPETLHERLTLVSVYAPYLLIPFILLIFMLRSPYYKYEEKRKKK

Experiments:
Assay in all cases: log2 fold change, soluble protein after heating vs DMSO (PISA); higher = thermal stabilisation; K562 lysate, 10 uM; active = over 0.2 and 3.5 SD of the protein, either way, in both replicates (recomputed)
lapatinib = compound: CS(=O)(=O)CCNCc1ccc(-c2ccc3ncnc(Nc4ccc(OCc5cccc(F)c5)c(Cl)c4)c3c2)o1 [lapatinib]
Method in brief: (§1)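 Quantification was by TMTpro 16plex LC-MS/MS with equalised channel sums, applied to the supernatant after 21,000xg for 90 min. Samples were crude K562 extract at 1 mg/mL protein in PBS pH 7.4 with 1 mM MgCl2, treated with 10 μM compound for 30 min, heated for 3 min across 48°C-58°C, pooled and brought to 0.5% NP-40 at 4°C. Values are log-two fold changes in thermal stability relative to solvent controls, from duplicates.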

pictilisib = compound: CS(=O)(=O)N1CCN(Cc2cc3nc(-c4cccc5[nH]ncc45)nc(N4CCOCC4)c3s2)CC1 [pictilisib]
Method in brief: as §1

crizotinib = compound: C[C@@H](Oc1cc(-c2cnn(C3CCNCC3)c2)cnc1N)c1c(Cl)ccc(F)c1Cl [crizotinib]
Method in brief: as §1

[1] = compound: C[C@H](C1=CC=C(C=C1)C(=O)NC2=C3C=CNC3=NC=C2)N
Method in brief: as §1

duvelisib = compound: C[C@H](Nc1ncnc2nc[nH]c12)c1cc2cccc(Cl)c2c(=O)n1-c1ccccc1 [duvelisib]
Method in brief: as §1

gandotinib = compound: Cc1cc(Nc2cc(CN3CCOCC3)c3nc(C)c(Cc4ccc(Cl)cc4F)n3n2)n[nH]1 [gandotinib]
Method in brief: as §1

tozasertib = compound: Cc1cc(Nc2cc(N3CCN(C)CC3)nc(Sc3ccc(NC(=O)C4CC4)cc3)n2)n[nH]1 [tozasertib]
Method in brief: as §1

doramapimod = compound: Cc1ccc(-n2nc(C(C)(C)C)cc2NC(=O)Nc2ccc(OCCN3CCOCC3)c3ccccc23)cc1 [doramapimod]
Method in brief: as §1

bafetinib = compound: Cc1ccc(NC(=O)c2ccc(CN3CC[C@H](N(C)C)C3)c(C(F)(F)F)c2)cc1Nc1nccc(-c2cncnc2)n1 [bafetinib]
Method in brief: as §1

[2] = compound: Cc1cccc(CC(=O)N2CCc3c2ccc(-c2cn(C)c4ncnc(N)c24)c3F)n1
Method in brief: as §1

nilotinib = compound: Cc1cn(-c2cc(NC(=O)c3ccc(C)c(Nc4nccc(-c5cccnc5)n4)c3)cc(C(F)(F)F)c2)cn1 [nilotinib]
Method in brief: as §1

[3] = compound: Cc1nc(Nc2n[nH]c3c2CN(C(=O)N[C@H](CN(C)C)c2ccccc2)C3(C)C)c2sccc2n1
Method in brief: as §1

dasatinib = compound: Cc1nc(Nc2ncc(C(=O)Nc3c(C)cccc3Cl)s2)cc(N2CCN(CCO)CC2)n1 [dasatinib]
Method in brief: as §1

[4] = compound: Cc1ncc(-c2ccnc(Nc3ccc(S(C)(=O)=O)cc3)n2)n1C(C)C
Method in brief: as §1

[5] = compound: Cn1cc(-c2ccc3c(c2)CCN3C(=O)Cc2cccc(C(F)(F)F)c2)c2c(N)ncnc21
Method in brief: as §1

quisinostat = compound: Cn1cc(CNCC2CCN(c3ncc(C(=O)NO)cn3)CC2)c2ccccc21 [quisinostat]
Method in brief: as §1

tipifarnib = compound: Cn1cncc1[C@@](N)(c1ccc(Cl)cc1)c1ccc2c(c1)c(-c1cccc(Cl)c1)cc(=O)n2C [tipifarnib]
Method in brief: as §1

[6] = compound: NC(=O)Nc1cc(-c2cccc(F)c2)sc1C(=O)N[C@H]1CCCNC1
Method in brief: as §1

[7] = compound: NC(=O)c1cnc(N[C@@H]2CCCC[C@@H]2N)nc1Nc1cccc(-n2nccn2)c1
Method in brief: as §1

[8] = compound: NC1(c2ccc(-c3nc4ccn5c(=O)[nH]nc5c4cc3-c3ccccc3)cc2)CCC1
Method in brief: as §1

Target | log2 fold change (lapatinib) | log2 fold change (pictilisib) | log2 fold change (crizotinib) | log2 fold change [1] | log2 fold change (duvelisib) | log2 fold change (gandotinib) | log2 fold change (tozasertib) | log2 fold change (doramapimod) | log2 fold change (bafetinib) | log2 fold change [2] | log2 fold change (nilotinib) | log2 fold change [3] | log2 fold change (dasatinib) | log2 fold change [4] | log2 fold change [5] | log2 fold change (quisinostat) | log2 fold change (tipifarnib) | log2 fold change [6] | log2 fold change [7] | log2 fold change [8]
TOR2A (UniProt Q5JU69) | inactive: 0.03 | inactive: -0.008 | inactive: -0.03 | inactive: -0.154 | inactive: 0.009 | inactive: -0.059 | inactive: 0.005 | inactive: -0.111 | inactive: -0.068 | inactive: 0.009 | inactive: 0.125 | inactive: -0.025 | inactive: -0.056 | inactive: 0.135 | inactive: 0.013 | inactive: 0.051 | inactive: -0.049 | inactive: -0.013 | inactive: 0.057 | inactive: 0.002
TNPO1 (UniProt Q92973) | inactive: -0.022 | inactive: 0.005 | inactive: -0.003 | inactive: 0.065 | inactive: 0.023 | inactive: -0.087 | inactive: -0.018 | inactive: 0.009 | inactive: -0.008 | inactive: -0.042 | inactive: 0.005 | inactive: -0.011 | inactive: -0.028 | inactive: -0.004 | inactive: 0.016 | inactive: -0.07 | inactive: -0.021 | inactive: -0.001 | inactive: 0.01 | inactive: -0.025
TNIP1 (UniProt Q15025) | inactive: -0.117 | inactive: -0.008 | inactive: 0.077 | inactive: -0.065 | inactive: -0.001 | inactive: 0.008 | inactive: -0.014 | inactive: 0.016 | inactive: -0.009 | inactive: 0.071 | inactive: -0.002 | inactive: 0.036 | inactive: -0.011 | inactive: -0.008 | inactive: -0.034 | inactive: 0.012 | inactive: 0.035 | inactive: 0.021 | inactive: 0.047 | inactive: -0.014
TOM1L1 (UniProt O75674) | inactive: -0.002 | inactive: -0.047 | inactive: -0.008 | inactive: -0.01 | inactive: -0.023 | inactive: 0.025 | inactive: -0.054 | inactive: 0 | inactive: -0.011 | inactive: 0.008 | inactive: 0 | inactive: 0.066 | inactive: -0.01 | inactive: 0.02 | inactive: -0.048 | inactive: -0.023 | inactive: 0.025 | inactive: 0.018 | inactive: -0.003 | inactive: -0.003
TMEM87A (UniProt Q8NBN3) | inactive: -0.007 | inactive: -0.015 | inactive: 0.016 | inactive: -0.082 | inactive: 0.012 | active: 0.242 | inactive: -0.029 | inactive: 0.026 | inactive: -0.007 | active: 0.248 | inactive: -0.009 | inactive: 0.055 | inactive: -0.007 | inactive: 0.027 | inactive: 0.03 | inactive: -0.021 | inactive: 0.024 | inactive: 0.003 | inactive: 0.03 | inactive: 0.017
TOM1L2 (UniProt Q6ZVM7) | inactive: 0.067 | inactive: -0.089 | inactive: 0.022 | inactive: 0.003 | inactive: -0.018 | inactive: 0.057 | inactive: 0.048 | inactive: 0.015 | inactive: -0.071 | inactive: 0.013 | inactive: -0.113 | inactive: -0.023 | inactive: 0.067 | inactive: 0.221 | inactive: 0.108 | inactive: -0.01 | inactive: 0.027 | inactive: 0.058 | inactive: 0.053 | inactive: -0.081
TMEM263 (UniProt Q8WUH6) | inactive: 0.149 | inactive: 0.015 | inactive: 0.06 | inactive: -0.072 | inactive: 0.02 | inactive: 0.178 | inactive: -0.066 | inactive: 0.112 | inactive: -0.028 | inactive: 0.208 | inactive: 0.151 | inactive: 0.153 | inactive: -0.134 | inactive: -0.079 | inactive: 0.011 | inactive: 0.021 | active: -0.512 | inactive: 0.063 | inactive: -0.021 | inactive: -0.154
TPM1 isoform 4 (UniProt P09493) | inactive: 0.032 | inactive: -0.051 | inactive: 0.001 | inactive: 0.061 | inactive: -0.029 | inactive: -0.142 | inactive: 0.013 | inactive: 0.012 | inactive: 0.011 | inactive: -0.142 | inactive: 0.02 | inactive: 0 | inactive: 0.004 | inactive: -0.031 | inactive: 0.004 | inactive: 0.023 | inactive: -0.008 | inactive: -0.016 | inactive: -0.018 | inactive: -0.019
TMEM41A (UniProt Q96HV5) | inactive: 0.009 | inactive: 0.003 | inactive: 0.047 | inactive: -0.102 | inactive: -0.003 | inactive: 0.125 | inactive: 0.027 | inactive: 0.045 | inactive: 0.057 | inactive: 0.024 | inactive: 0.067 | inactive: -0.007 | inactive: 0.025 | inactive: -0.055 | inactive: 0.047 | inactive: 0.025 | inactive: -0.048 | inactive: -0.059 | inactive: -0.036 | inactive: 0.001
TPMT (UniProt P51580) | inactive: 0.036 | inactive: -0.012 | inactive: 0.057 | inactive: -0.01 | inactive: -0.001 | inactive: -0.048 | inactive: -0.038 | inactive: -0.012 | inactive: 0.118 | inactive: -0.011 | inactive: 0.015 | inactive: 0.025 | inactive: 0.018 | inactive: -0.015 | inactive: 0.007 | inactive: 0.088 | inactive: 0.029 | inactive: -0.017 | inactive: -0.015 | inactive: 0.046
TP53BP1 isoform 2 (UniProt Q12888) | inactive: 0 | inactive: -0.003 | inactive: 0.013 | inactive: 0.002 | inactive: 0.009 | inactive: 0.002 | inactive: 0.021 | inactive: -0.016 | inactive: -0.018 | inactive: 0.011 | inactive: 0.01 | inactive: 0.013 | inactive: 0.025 | inactive: -0.005 | inactive: 0 | inactive: -0.011 | inactive: -0.006 | inactive: 0.011 | inactive: -0.01 | inactive: 0.016
TMEM65 (UniProt Q6PI78) | inactive: 0.078 | inactive: 0.009 | inactive: -0.028 | inactive: 0.006 | inactive: 0.022 | inactive: -0.053 | inactive: -0.007 | inactive: 0.012 | inactive: 0.086 | inactive: -0.032 | inactive: -0.199 | inactive: 0.081 | inactive: -0.081 | inactive: -0.118 | inactive: 0.049 | inactive: 0.014 | inactive: -0.154 | inactive: -0.078 | inactive: 0.018 | inactive: -0.016
TRA2A (UniProt Q13595) | inactive: -0.012 | inactive: 0.032 | inactive: -0.184 | inactive: -0.048 | inactive: -0.048 | inactive: -0.011 | inactive: 0.015 | inactive: 0.086 | inactive: 0.042 | inactive: 0.053 | inactive: 0.098 | inactive: -0.041 | inactive: -0.08 | inactive: -0.124 | inactive: 0.077 | inactive: -0.213 | inactive: -0.114 | inactive: -0.206 | inactive: 0 | inactive: -0.062
TMPO (UniProt P42167) | inactive: 0.053 | inactive: 0.029 | inactive: 0.059 | inactive: 0.047 | inactive: -0.039 | inactive: -0.033 | inactive: 0.035 | inactive: -0.037 | inactive: 0.005 | inactive: -0.04 | inactive: -0.033 | inactive: -0.003 | inactive: 0.008 | inactive: -0.042 | inactive: -0.016 | inactive: 0.061 | inactive: -0.034 | inactive: 0.009 | inactive: -0.011 | inactive: 0.007
TMEM97 (UniProt Q5BJF2) | inactive: -0.052 | inactive: -0.004 | inactive: 0.113 | active: -0.277 | inactive: 0.014 | inactive: 0.17 | inactive: -0.013 | inactive: -0.127 | inactive: -0.015 | inactive: 0.12 | inactive: 0.098 | inactive: 0.053 | inactive: 0.018 | inactive: 0.124 | inactive: -0.005 | inactive: 0.046 | inactive: 0.057 | inactive: 0.011 | inactive: -0.034 | inactive: 0.023

Single records, as listed above. Values in the order: log2 fold change (lapatinib) | log2 fold change (pictilisib) | log2 fold change (crizotinib) | log2 fold change [1] | log2 fold change (duvelisib) | log2 fold change (gandotinib) | log2 fold change (tozasertib) | log2 fold change (doramapimod) | log2 fold change (bafetinib) | log2 fold change [2] | log2 fold change (nilotinib) | log2 fold change [3] | log2 fold change (dasatinib) | log2 fold change [4] | log2 fold change [5] | log2 fold change (quisinostat) | log2 fold change (tipifarnib) | log2 fold change [6] | log2 fold change [7] | log2 fold change [8]
TNPO1 (UniProt Q92973) as listed: inactive: -0.022 | inactive: 0.005 | inactive: -0.003 | inactive: 0.065 | inactive: 0.023 | inactive: -0.087 | inactive: -0.018 | inactive: 0.009 | inactive: -0.008 | inactive: -0.042 | inactive: 0.005 | inactive: -0.011 | inactive: -0.028 | inactive: -0.004 | inactive: 0.016 | inactive: -0.07 | inactive: -0.021 | inactive: -0.001 | inactive: 0.01 | inactive: -0.025
TOM1L2 (UniProt Q6ZVM7) as listed: inactive: 0.067 | inactive: -0.089 | inactive: 0.022 | inactive: 0.003 | inactive: -0.018 | inactive: 0.057 | inactive: 0.048 | inactive: 0.015 | inactive: -0.071 | inactive: 0.013 | inactive: -0.113 | inactive: -0.023 | inactive: 0.067 | inactive: 0.221 | inactive: 0.108 | inactive: -0.01 | inactive: 0.027 | inactive: 0.058 | inactive: 0.053 | inactive: -0.081
